These are yes or no findings as the source states them, for the method shown. For some of these results: Binding can be weak; no strength is given. One block for each molecule: values may come before it.
Tests used:
[1] = biological target: T1, full-length human TCTP (FL-TCTP) (human) (UniProt P13693); experiment: NMR titration; 15N and 13C SOFAST-HMQC of labeled TCTP (100 μM) with unlabeled Mcl-1 (2 eq., 2 h incubation); 950 MHz, 278 K, 50 mM EPPS pH 8, 50 mM MES, 50 mM NaCl, 2 mM TCEP; both purified
T1 sequence: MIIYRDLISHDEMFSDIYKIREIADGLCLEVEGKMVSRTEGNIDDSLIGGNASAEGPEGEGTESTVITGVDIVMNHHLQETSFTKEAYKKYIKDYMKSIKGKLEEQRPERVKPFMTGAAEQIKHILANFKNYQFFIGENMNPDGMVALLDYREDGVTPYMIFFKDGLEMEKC

[2] = biological target: human Mcl-1 ΔPESTΔTM (human); experiment: condition: only in an equimolar mix with the competitors TCTPBH3D16I and MuleBH3 (5 eq. total); NMR competition (15N SOFAST-HMQC); 15N-Mcl-1 with an excess (5 eq. total) of an equimolar mix of TCTPBH3, TCTPBH3D16I and MuleBH3, 2 h at room temperature; populations from intensities of seven reporter residues; 950 MHz, 298 K, 50 mM MES pH 6.5, 50 mM EPPS, 50 mM NaCl, 2 mM TCEP; both purified
[3] = biological target: human Mcl-1 ΔPESTΔTM (human); experiment: NMR titration; 15N SOFAST-HMQC of 15N-Mcl-1 (100 μM) with unlabeled FL-TCTP (2 eq., 2 h incubation) or TCTPBH3 peptide; 950 MHz, 308 K, 50 mM EPPS pH 8, 50 mM MES, 50 mM NaCl, 2 mM TCEP; both purified
[4] = biological target: human Mcl-1 ΔPESTΔTM (human); experiment: NMR competition; 15N-FL-TCTP−Mcl-1 complex formed first, then TCTPBH3 added; reciprocal: TCTPBH3−Mcl-1 complex formed first, then FL-TCTP added (1D methyl signals); both purified
[5] = biological target: human Mcl-1 ΔPESTΔTM (human); experiment: condition: only Mcl-1 already in complex with the competitor TCTPBH3; NMR competition; 15N-FL-TCTP−Mcl-1 complex formed first, then TCTPBH3 added; reciprocal: TCTPBH3−Mcl-1 complex formed first, then FL-TCTP added (1D methyl signals); both purified

- binding [1]: binds
Molecule: human Mcl-1 ΔPESTΔTM (domain or fragment)

- binding [2]: no binding
- binding [3]: binds
- binding [4]: binds
B1: TCTP BH3-like peptide (TCTPBH3) (peptide, UniProt P13693 11-32)
peptide: DEMFSDIYKIREIADGLCLEVE

- binding [5]: no binding
- binding [3]: binds
- binding [4]: binds
B2: full-length human TCTP (FL-TCTP) (protein, UniProt P13693 1-172)
chain: T1 sequence
